1 molecule from PMC10296663 can be followed below.

The chains behind the UniProt entries cited, without tags or fusion partners.
UniProt Q86U44: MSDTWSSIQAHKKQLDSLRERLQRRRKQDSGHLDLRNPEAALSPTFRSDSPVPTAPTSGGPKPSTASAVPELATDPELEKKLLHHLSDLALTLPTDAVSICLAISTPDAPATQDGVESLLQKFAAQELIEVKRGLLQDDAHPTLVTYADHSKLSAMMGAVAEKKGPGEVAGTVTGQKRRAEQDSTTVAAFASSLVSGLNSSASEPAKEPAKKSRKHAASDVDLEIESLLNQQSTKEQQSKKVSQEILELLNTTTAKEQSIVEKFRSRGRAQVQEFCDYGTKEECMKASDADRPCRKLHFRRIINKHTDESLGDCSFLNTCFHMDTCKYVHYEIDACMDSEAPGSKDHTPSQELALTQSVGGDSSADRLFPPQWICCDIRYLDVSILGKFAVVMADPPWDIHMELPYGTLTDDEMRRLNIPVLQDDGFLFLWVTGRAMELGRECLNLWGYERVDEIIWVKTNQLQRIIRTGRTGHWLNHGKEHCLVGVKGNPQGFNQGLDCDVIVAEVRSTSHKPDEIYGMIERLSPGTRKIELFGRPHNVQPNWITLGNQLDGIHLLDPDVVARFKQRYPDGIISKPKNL

Results are given in words; binding and its absence hold for the method and conditions named. Binding seen in cells or lysates may run through a third protein. Some entries that bind do so weakly or less than the wild type.

Assay [1] has as its target METTL3 (human (endogenous in H1975)) (UniProt Q86U44). Nature of the assay: condition: only H1975 cells without Nivolumab saturation; co-IP; lysate of H1975 cells without Nivolumab saturation; IP with anti-METTL3 or control IgG on magnetic beads, overnight at 4 °C; lysis buffer 20 mM Tris-HCl pH 7.4, 150 mM NaCl, 1 mM EDTA, 1% Triton; western blot for METTL3 and KHDRBS3.

Assay [2] has the same target. The assay is described as follows: co-IP; lysate of H1975^NivoSat cells (H1975 saturated with 0.1 μg/mL Nivolumab); IP with anti-METTL3 or control IgG on magnetic beads, overnight at 4 °C; lysis buffer 20 mM Tris-HCl pH 7.4, 150 mM NaCl, 1 mM EDTA, 1% Triton; western blot for METTL3 and KHDRBS3.

B1: KHDRBS3 (protein, UniProt O75525 1-346)
chain: MEEKYLPELMAEKDSLDPSFTHALRLVNQEIEKFQKGEGKDEEKYIDVVINKNMKLGQKVLIPVKQFPKFNFVGKLLGPRGNSLKRLQEETLTKMSILGKGSMRDKAKEEELRKSGEAKYFHLNDDLHVLIEVFAPPAEAYARMGHALEEIKKFLIPDYNDEIRQAQLQELTYLNGGSENADVPVVRGKPTLRTRGVPAPAITRGRGGVTARPVGVVVPRGTPTPRGVLSTRGPVSRGRGLLTPRARGVPPTGYRPPPPPPTQETYGEYDYDDGYGTAYDEQSYDSYDNSYSTPAQSGADYYDYGHGLSEETYDSYGQEEWTNSRHKAPSARTAKGVYRDQPYGRY
In the case of B1, the binding result in assay [1] is “no binding”; in assay [2], “binds”.
